This passage reports binding results from patent US20220403031A1.

By UniProt entry, the sequences of proteins in these tests, tags left out. Where a name states a change or a piece, a line headed by the entry shows the natural chain unless it says otherwise. Chains listed by the source or under a name are the forms on record and can include a tag or linker.
cynomolgus monkey PD-L1 on 293F cells (W315-293F.cynoPro1.2A2) (G7PSE7, form named): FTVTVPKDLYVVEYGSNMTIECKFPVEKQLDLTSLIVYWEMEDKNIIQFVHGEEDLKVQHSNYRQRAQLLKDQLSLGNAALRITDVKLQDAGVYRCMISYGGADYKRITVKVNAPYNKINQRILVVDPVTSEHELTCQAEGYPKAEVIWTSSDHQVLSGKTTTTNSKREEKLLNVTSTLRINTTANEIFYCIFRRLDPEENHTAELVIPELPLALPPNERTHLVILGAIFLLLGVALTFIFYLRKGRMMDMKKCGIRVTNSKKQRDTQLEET

The target in assay [1] is cynomolgus monkey PD-L1 on 293F cells (W315-293F.cynoPro1.2A2) (cynomolgus monkey) (UniProt G7PSE7). Kind of assay: FACS affinity on PD-L1 cells.
Assay [2] has the same target. Kind of assay: FACS on cynomolgus PD-L1 293F cells.

Results are given in words; binding and its absence hold for the method and conditions named. Some binding calls cover weakened binding; strength is not graded here.

B1: AP3R2-1A3-z12-hIgG1 (Fc fusion, not shown: a dimerising Fc or GST)
chain: EVQLVESGGGLVQPGGSLRLSCAASGHFSNLAVNWFRQAPGKERELVAGILWSGGSTFYADSVKGRFTISRGNAENMLYLQMNSLRAEDTAVYYCNTGTNWGQGTLVTVSS
In the case of B1, the binding entry in assay [1] and in assay [2] was “binds” each time.
